The list does not hold the whole screen: it is rich in T/C values a quarter to a half above the control, in often repeated tests (any T/C) and in doses without a T/C. Further doses and runs are listed elsewhere. T/C gives the treated animals as a percentage of the vehicle group. Some doses have a count of surviving animals in place of a T/C: the source files T/C as zero there, which appears to mark a toxic dose or a test without result, not a measured value. Some survivor counts are full or nearly so, which does not show that the dose was tolerated: the source hardly ever lists a survival T/C far under the control, and the zero likely stands for such cases as well. Survivors were counted at the toxicity check, usually on the fifth day, unless a day is given; later deaths do not show. Schedule codes are those of the source, read here as Q, the interval in days (D) or hours (H), X, the number of doses. Some schedules carry Z or #; the key to these is not given. For survival time, this PubChem deposit counts one and a half times the control or more as active, and values a quarter to a half above the control carry no call in these data; other NCI protocols may use other cut-offs. Some T/C values carry the count of animals alive at the toxicity check (mostly the fifth day); where none is given, no animal had died by that day. Some doses were run more than once; the values are given in rising order.
Test system: L1210 leukemia ip in BDF1 mice, survival T/C
Experiment: NCI In Vivo Anticancer Drug Screen. Data for tumor model L1210 Leukemia (intraperitoneal) in B6D2F1 (BDF1) mice
Settings: T/C endpoint: mean survival time, higher T/C = longer survival
[1] = dose: 200.0 mg/kg/injection, schedule: Q01DX009 (ip), vehicle: Klucel (hydroxypropylcellulose) (HPC)
[2] = dose: 400.0 mg/kg/injection, schedule: Q01DX009 (ip), vehicle: Klucel (hydroxypropylcellulose) (HPC)
[3] = dose: 400.0 mg/kg/injection, schedule: Q01DX001 (ip), vehicle: saline
[4] = dose: 400.0 mg/kg/injection, schedule: Q04DX003 (ip), vehicle: Klucel (hydroxypropylcellulose) (HPC)
[5] = dose: 400.0 mg/kg/injection, schedule: Q01DX009 (ip), vehicle: saline
[6] = dose: 200.0 mg/kg/injection, schedule: Q01DX009 (ip), vehicle: saline
[7] = dose: 400.0 mg/kg/injection, schedule: Q04DX003 (ip), vehicle: saline

## C[C@]12CCC(=O)C=C1CC[C@@H]1[C@@H]2C(=O)C[C@]2(C)C3=CC(=O)O[C@H]3C[C@@H]12
dose: 100.0 mg/kg/injection, schedule: Q01DX009 (ip), vehicle: Klucel (hydroxypropylcellulose) (HPC)
  survivor count: 1 of 6
[1]
  survivor count: 0 of 6
[2]
  survivor count: 0 of 6

## C[n+]1c(-c2cccc3ccccc23)c2cc([N+](=O)[O-])ccc2c2ccccc21
dose: 25.0 mg/kg/injection, schedule: Q01DX009 (ip), vehicle: water
  survivor count: 3 of 6
dose: 50.0 mg/kg/injection, schedule: Q01DX009 (ip), vehicle: water
  survivor count: 0 of 6
dose: 100.0 mg/kg/injection, schedule: Q04DX003 (ip), vehicle: water
  survivor count: 0 of 6
dose: 200.0 mg/kg/injection, schedule: Q04DX003 (ip), vehicle: water
  survivor count: 0 of 6
dose: 400.0 mg/kg/injection, schedule: Q04DX003 (ip), vehicle: water
  survivor count: 0 of 6

## IC[P+](c1ccccc1)(c1ccccc1)c1ccccc1
dose: 150.0 mg/kg/injection, schedule: Q01DX001 (ip), vehicle: carboxymethylcellulose (CMC)
  survivor count: 0 of 6
dose: 300.0 mg/kg/injection, schedule: Q01DX001 (ip), vehicle: carboxymethylcellulose (CMC)
  survivor count: 0 of 6

## COc1cc(C(=O)Nc2ccc(C3=NCCN3)cc2)ccc1C(=O)Nc1ccc(C2=NCCN2)cc1
dose: 1.88 mg/kg/injection, schedule: Q01DX Z (ip), vehicle: saline
  T/C: 128 % of control
dose: 3.75 mg/kg/injection, schedule: Q01DX Z (ip), vehicle: saline
  T/C: 134 % of control
dose: 7.5 mg/kg/injection, schedule: Q01DX Z (ip), vehicle: saline
  T/C: 141 % of control
dose: 120.0 mg/kg/injection, schedule: Q01DX Z (ip), vehicle: saline
  T/C: 127 % of control [5 of 6 alive]
dose: 240.0 mg/kg/injection, schedule: Q01DX Z (ip), vehicle: saline
  survivor count: 0 of 6
dose: 480.0 mg/kg/injection, schedule: Q01DX Z (ip), vehicle: saline
  survivor count: 0 of 6

## O=[N+]([O-])c1sc2ccccc2c1O
dose: 50.0 mg/kg/injection, schedule: Q01DX009 (ip), vehicle: saline with Tween-80
  survivor count: 5 of 6

## CCCCCC(C)(O)CCC (configuration not stated)
[3]
  survivor count: 0 of 4

## CC(=O)Nc1ccc(NC(=S)Nc2ccc(NC(C)=O)cc2)cc1
[1]
  survivor count: 0 of 6
[4]
  survivor count: 0 of 6

## CC1(C)C2CCC13CC(=O)OC3C2 (configuration not stated)
dose: 6.25 mg/kg/injection, schedule: Q04DX003 (ip), vehicle: saline
  survivor count: 6 of 6
dose: 12.5 mg/kg/injection, schedule: Q04DX003 (ip), vehicle: saline
  survivor count: 6 of 6
dose: 23.0 mg/kg/injection, schedule: Q01DX009 (ip), vehicle: acetone
  survivor count: 2 of 6
dose: 25.0 mg/kg/injection, schedule: Q04DX003 (ip), vehicle: saline
  survivor count: 4 of 6
dose: 35.0 mg/kg/injection, schedule: Q01DX009 (ip), vehicle: acetone
  survivor count: 0 of 6
dose: 100.0 mg/kg/injection, schedule: Q01DX001 (ip), vehicle: saline
  survivor count: 0 of 6
dose: 200.0 mg/kg/injection, schedule: Q01DX001 (ip), vehicle: saline
  survivor count: 1 of 6
[3]
  survivor count: 0 of 6

## CC(CO)(CO)N1C(=O)c2cccc3cc([N+](=O)[O-])cc(c23)C1=O
[2]
  survivor count: 2 of 6

## CC(C)(C)C(=O)OCn1cnc(=N)c2[nH]cnc21
[4]
  survivor count: 2 of 6

## NC(=O)C1(NC2CCCCC2)CCN(Cc2ccccc2)CC1
dose: 400.0 mg/kg/injection, schedule: Q04DX003 (ip), vehicle: gum acacia
  survivor count: 0 of 6

## CC(NC(=O)NCCCl)c1ccsc1 (configuration not stated)
dose: 20.0 mg/kg/injection, schedule: Q01DX009 (ip), vehicle: Klucel (hydroxypropylcellulose) (HPC)
  survivor count: 0 of 6
dose: 40.0 mg/kg/injection, schedule: Q01DX009 (ip), vehicle: Klucel (hydroxypropylcellulose) (HPC)
  survivor count: 0 of 6
dose: 75.0 mg/kg/injection, schedule: Q01DX009 (ip), vehicle: Klucel (hydroxypropylcellulose) (HPC)
  survivor count: 2 of 6
dose: 150.0 mg/kg/injection, schedule: Q01DX009 (ip), vehicle: Klucel (hydroxypropylcellulose) (HPC)
  survivor count: 0 of 6
dose: 300.0 mg/kg/injection, schedule: Q01DX009 (ip), vehicle: Klucel (hydroxypropylcellulose) (HPC)
  survivor count: 3 of 6

## Cc1cn(C2C=CC(CO)O2)c(=O)[nH]c1=O (configuration not stated)
dose: 200.0 mg/kg/injection, schedule: Q01DX009 (ip), vehicle: saline with Tween-80
  survivor count: 6 of 6

## O=Cc1c[nH]c(=O)[nH]c1=O
[5]
  survivor count: 3 of 6

## NC1CC[N-]CC1.NC1CC[N-]CC1.[Cl][Pt+2]([Cl])([Cl])[Cl]
dose: 100.0 mg/kg/injection, schedule: Q01DX009 (ip), vehicle: saline
  survivor count: 3 of 6
[6]
  survivor count: 0 of 6
dose: 200.0 mg/kg/injection, schedule: Q04DX003 (ip), vehicle: saline
  survivor count: 3 of 6
[5]
  survivor count: 0 of 6
[7]
  survivor count: 0 of 6

## C=[CH][Sn]([CH]=C)([CH]=C)[O]C(C)=O
dose: 25.0 mg/kg/injection, schedule: Q01DX009 (ip), vehicle: Klucel (hydroxypropylcellulose) (HPC)
  survivor count: 0 of 6
dose: 50.0 mg/kg/injection, schedule: Q04DX002 (ip), vehicle: Klucel (hydroxypropylcellulose) (HPC)
  survivor count: 0 of 3
dose: 100.0 mg/kg/injection, schedule: Q04DX002 (ip), vehicle: Klucel (hydroxypropylcellulose) (HPC)
  survivor count: 1 of 3
dose: 200.0 mg/kg/injection, schedule: Q04DX002 (ip), vehicle: Klucel (hydroxypropylcellulose) (HPC)
  survivor count: 1 of 3
dose: 400.0 mg/kg/injection, schedule: Q04DX002 (ip), vehicle: Klucel (hydroxypropylcellulose) (HPC)
  survivor count: 0 of 3

## CCC1(C(C)Br)OC2=C(CC(C#N)(C#N)C(C#N)(C#N)C2)O1 (configuration not stated)
dose: 25.0 mg/kg/injection, schedule: Q01DX009 (ip), vehicle: saline
  survivor count: 3 of 6
dose: 50.0 mg/kg/injection, schedule: Q01DX009 (ip), vehicle: other
  survivor count: 2 of 6
dose: 75.0 mg/kg/injection, schedule: Q01DX009 (ip), vehicle: saline
  survivor count: 2 of 6
dose: 150.0 mg/kg/injection, schedule: Q01DX001 (ip), vehicle: saline
  survivor count: 3 of 6
dose: 300.0 mg/kg/injection, schedule: Q01DX001 (ip), vehicle: saline
  survivor count: 2 of 6

## O=C(CBr)c1ccccc1
dose: 40.0 mg/kg/injection, schedule: Q04DX003 (ip), vehicle: saline with Tween-80
  survivor count: 3 of 6

## CC1=CC(=O)CC(C)(C)C1(O)/C=C/C(C)=C/C(=O)O (configuration not stated)
dose: 12.5 mg/kg/injection, schedule: Q01DX009 (ip), vehicle: Klucel (hydroxypropylcellulose) (HPC)
  survivor count: 6 of 6

## CN(c1ccccc1)c1cc(N)nc(N)n1
dose: 12.0 mg/kg/injection, schedule: Q01DX Z (ip), vehicle: methylcellulose (MC)
  survivor count: 5 of 6
dose: 25.0 mg/kg/injection, schedule: Q01DX Z (ip), vehicle: methylcellulose (MC)
  survivor count: 1 of 6
dose: 50.0 mg/kg/injection, schedule: Q01DX Z (ip), vehicle: methylcellulose (MC)
  survivor count: 6 of 6
dose: 100.0 mg/kg/injection, schedule: Q01DX Z (ip), vehicle: methylcellulose (MC)
  survivor count: 0 of 6
dose: 200.0 mg/kg/injection, schedule: Q01DX Z (ip), vehicle: methylcellulose (MC)
  survivor count: 0 of 6

## CN(C)CCCNC(=O)Nc1ccccc1
[2]
  survivor count: 0 of 6
[4]
  survivor count: 2 of 6

## CCN1CCC2=C(CCCC2O)C1 (configuration not stated)
dose: 300.0 mg/kg/injection, schedule: Q01DX001 (ip), vehicle: steroid suspending solution
  survivor count: 3 of 6

## NNC(=O)[C@H]1CC[C@H]1C(=O)NN
[6]
  T/C: 128 % of control
dose: 300.0 mg/kg/injection, schedule: Q01DX009 (ip), vehicle: saline
  survivor count: 5 of 6
[7]
  T/C: 100, 113 [5 of 6 alive], 125, 132 % of control

## CC(C)c1cccc(O)c(=O)c1
dose: 400.0 mg/kg/injection, schedule: Q04DX003 (ip), vehicle: saline with Tween-80
  survivor count: 0 of 6

Reference: PubChem BioAssay AID248 (DTP/NCI, 2004)
